Test [1] concerns the target full-length recombinant human LTBP-2 (latent transforming growth factor-beta-1 binding protein-2) (human) (UniProt Q14767). In words: ELISA; solid phase binding assay: rLTBP-2 (100 ng/well) coated on microtitre wells, BSA-coated wells as control; growth factor at one amount per well, 37°C, 2 h; bound growth factor detected with biotinylated DuoSet antibody and streptavidin-HRP (Fig 2); both purified.

By UniProt entry, the sequences of proteins in these tests, tags left out. Residues count along the entry.
UniProt Q14767, residues 36-1821: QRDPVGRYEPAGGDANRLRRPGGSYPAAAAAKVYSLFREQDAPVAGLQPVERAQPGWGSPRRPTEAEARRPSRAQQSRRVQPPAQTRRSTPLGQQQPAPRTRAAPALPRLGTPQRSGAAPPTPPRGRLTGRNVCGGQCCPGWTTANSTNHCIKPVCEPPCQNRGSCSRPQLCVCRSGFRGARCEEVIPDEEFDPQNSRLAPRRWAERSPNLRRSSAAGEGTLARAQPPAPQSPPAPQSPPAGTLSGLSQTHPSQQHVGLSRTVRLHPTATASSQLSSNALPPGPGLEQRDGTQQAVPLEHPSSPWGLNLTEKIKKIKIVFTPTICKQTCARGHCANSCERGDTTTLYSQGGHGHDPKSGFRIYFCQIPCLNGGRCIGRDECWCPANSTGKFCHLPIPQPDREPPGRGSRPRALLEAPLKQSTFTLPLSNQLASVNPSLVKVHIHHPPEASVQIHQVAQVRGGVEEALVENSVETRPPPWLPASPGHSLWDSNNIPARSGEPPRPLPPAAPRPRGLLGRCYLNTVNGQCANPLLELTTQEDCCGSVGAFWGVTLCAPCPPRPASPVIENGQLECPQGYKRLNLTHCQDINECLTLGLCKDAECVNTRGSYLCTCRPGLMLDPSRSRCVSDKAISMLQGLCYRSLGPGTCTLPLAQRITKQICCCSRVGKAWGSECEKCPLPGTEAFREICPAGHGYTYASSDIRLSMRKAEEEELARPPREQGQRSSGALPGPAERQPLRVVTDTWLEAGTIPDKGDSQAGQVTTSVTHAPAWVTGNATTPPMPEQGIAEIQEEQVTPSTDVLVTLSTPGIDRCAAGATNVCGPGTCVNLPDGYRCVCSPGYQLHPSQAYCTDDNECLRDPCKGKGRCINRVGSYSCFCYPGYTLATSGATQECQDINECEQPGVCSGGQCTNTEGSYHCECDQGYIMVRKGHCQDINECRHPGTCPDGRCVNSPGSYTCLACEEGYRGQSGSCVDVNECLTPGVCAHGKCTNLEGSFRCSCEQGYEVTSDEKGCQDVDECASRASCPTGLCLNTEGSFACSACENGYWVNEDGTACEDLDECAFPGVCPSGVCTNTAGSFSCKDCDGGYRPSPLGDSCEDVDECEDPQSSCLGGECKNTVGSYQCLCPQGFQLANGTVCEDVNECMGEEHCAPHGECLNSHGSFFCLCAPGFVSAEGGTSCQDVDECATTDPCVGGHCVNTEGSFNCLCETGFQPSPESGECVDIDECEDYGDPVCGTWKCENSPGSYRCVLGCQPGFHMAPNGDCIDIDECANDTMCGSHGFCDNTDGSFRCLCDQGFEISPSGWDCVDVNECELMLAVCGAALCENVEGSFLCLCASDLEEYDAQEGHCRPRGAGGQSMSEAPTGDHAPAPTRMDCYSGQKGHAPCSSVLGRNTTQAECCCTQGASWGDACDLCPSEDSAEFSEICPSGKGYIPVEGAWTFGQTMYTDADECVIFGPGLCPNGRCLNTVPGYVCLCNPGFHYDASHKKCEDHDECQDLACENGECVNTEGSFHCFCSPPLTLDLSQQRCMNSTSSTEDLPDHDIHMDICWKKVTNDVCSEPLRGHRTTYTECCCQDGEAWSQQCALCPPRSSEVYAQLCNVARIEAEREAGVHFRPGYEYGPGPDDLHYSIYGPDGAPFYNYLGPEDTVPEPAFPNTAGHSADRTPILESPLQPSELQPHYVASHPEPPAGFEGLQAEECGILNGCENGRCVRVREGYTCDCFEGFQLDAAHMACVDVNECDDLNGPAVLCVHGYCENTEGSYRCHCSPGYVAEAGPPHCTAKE
UniProt P18075, residues 293-431: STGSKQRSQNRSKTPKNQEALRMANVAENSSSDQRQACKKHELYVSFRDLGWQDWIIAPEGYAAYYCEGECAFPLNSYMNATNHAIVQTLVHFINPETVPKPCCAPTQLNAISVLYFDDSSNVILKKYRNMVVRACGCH

Test [2] shares this target. Described as above. The source holds these as a separate data set.

Where two headings read alike, the source gives them in different places. These are yes or no findings as the source states them, for the method shown.

For the molecule “recombinant human BMP-7 (from UniProt P18075 293-431) (ligand)”, the binding entry in test [1] was “no binding (tested: 4 ng/well)”.

B1: recombinant human BMP-4 (ligand, UniProt P12644 293-408)
chain: SPKHHSQRARKKNKNCRRHSLYVDFSDVGWNDWIVAPPGYQAFYCHGDCPFPLADHLNSTNHAIVQTLVNSVNSSIPKACCVPTELSAISMLYLDEYDKVVLKNYQEMVVEGCGCR
Regarding B1, the binding result in test [2] is on record as “no binding (tested: 4 ng / well)”.

Values taken from PMC4532469.
